Laboratory results from patent US7855179 (dated 2010).
HELM strings list residues between dots; [ac] is acetyl, [am] amide, other brackets name non-standard units.

Experiments:
Conditions in all cases: whole synthesis, HPLC (gradient A)
[1] = general procedure: Fmoc solid-phase peptide synthesis; 2-chlorotrityl polystyrene resin, preloaded: (EA)G-O-, (BA)G-O-, (PrA)G-O-chlorotritylresin
[2] = general procedure: Fmoc solid-phase peptide synthesis; (EA)G-O-chlorotritylresin
[3] = general procedure: Fmoc solid-phase peptide synthesis; (EA)G-O chlorotritylresin

| Substance | final HPLC purity [1] | also measured |
| --- | --- | --- |
| PEPTIDE1{L.R.L.K.K.[BAG].R.[Bip].K.Y.R.V.[dP].P}$PEPTIDE1,PEPTIDE1,1:R1-14:R2$$$V2.0 | 63% | – |
| PEPTIDE1{L.R.L.K.K.[EAG].R.W.K.Y.R.V.[dP].P}$PEPTIDE1,PEPTIDE1,1:R1-14:R2$$$V2.0 | – | final HPLC purity [2]: 68% |
| PEPTIDE1{L.R.L.[hArg].[hArg].[EGUG].R.W.[hArg].Y.R.V.[dP].P}$PEPTIDE1,PEPTIDE1,1:R1-14:R2$$$V2.0 | – | final HPLC purity [3]: 40% |
| PEPTIDE1{R.W.L.K.[PeAG].R.R.W.K.Y.Y.V.[dP].P}$PEPTIDE1,PEPTIDE1,1:R1-14:R2$$$V2.0 | 100% | – |
| PEPTIDE1{R.W.L.Q.K.R.[PeAG].W.K.Y.Y.R.[dP].P}$PEPTIDE1,PEPTIDE1,1:R1-14:R2$$$V2.0 | 100% | – |
| PEPTIDE1{R.W.L.Q.[PeAG].R.R.W.K.Y.Y.R.[dP].P}$PEPTIDE1,PEPTIDE1,1:R1-14:R2$$$V2.0 | 100% | – |
| PEPTIDE1{T.W.L.K.[PeAG].R.R.W.K.Y.Y.R.[dP].P}$PEPTIDE1,PEPTIDE1,1:R1-14:R2$$$V2.0 [12] | 70% | – |
